Test [1] addresses T1, P2K1-nYFP (Arabidopsis thaliana) (UniProt Q9LSR8).
T1 sequence: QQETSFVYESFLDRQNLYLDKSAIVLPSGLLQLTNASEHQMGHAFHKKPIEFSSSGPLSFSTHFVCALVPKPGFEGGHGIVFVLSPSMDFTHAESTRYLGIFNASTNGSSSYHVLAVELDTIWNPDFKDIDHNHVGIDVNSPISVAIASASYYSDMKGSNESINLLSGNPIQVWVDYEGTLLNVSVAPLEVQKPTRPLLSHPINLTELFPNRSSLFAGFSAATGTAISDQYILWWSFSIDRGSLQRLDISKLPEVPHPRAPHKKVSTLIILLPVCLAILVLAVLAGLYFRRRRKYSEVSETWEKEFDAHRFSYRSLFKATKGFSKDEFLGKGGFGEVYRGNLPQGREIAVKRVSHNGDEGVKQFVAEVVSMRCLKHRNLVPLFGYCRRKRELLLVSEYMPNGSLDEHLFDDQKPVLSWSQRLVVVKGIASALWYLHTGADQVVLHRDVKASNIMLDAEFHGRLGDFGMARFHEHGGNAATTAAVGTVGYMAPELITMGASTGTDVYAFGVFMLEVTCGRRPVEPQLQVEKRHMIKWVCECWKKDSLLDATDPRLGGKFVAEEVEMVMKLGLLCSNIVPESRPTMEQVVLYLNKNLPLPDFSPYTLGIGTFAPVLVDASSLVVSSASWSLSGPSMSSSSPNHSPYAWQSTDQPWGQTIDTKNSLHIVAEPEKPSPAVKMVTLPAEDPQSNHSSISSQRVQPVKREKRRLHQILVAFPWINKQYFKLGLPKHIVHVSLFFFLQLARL
In words: split reporter; BiFC; nYFP and cYFP fusions in Arabidopsis protoplasts (PEG-mediated transformation), 21 °C for 24 h in the dark; YFP fluorescence by microscopy, FM4-64 as plasma membrane marker.

In test [2] the target is T2, HA-tagged P2K1 (Arabidopsis thaliana) (UniProt Q9LSR8).
T2 sequence: T1 sequence
In words: co-IP; HA-tagged P2K1 coexpressed with Myc-tagged ILK4 or ILK5 in N. benthamiana leaves, with and without exogenous ATP; total protein extract (50 mM Tris-HCl pH 7.5, 150 mM NaCl, 0.5% Triton X-100); anti-HA agarose beads overnight at 4 °C; blots with anti-HA and anti-Myc.

The target in test [3] is T3, P2K1 (construct of the validation tests listed in Table 1 not told) (Arabidopsis thaliana) (UniProt Q9LSR8).
T3 sequence: T1 sequence
The test is described as follows: split reporter; LCI assay as listed in Table 1 for candidates of the 2k KiC screen; no reference and no further description given.

Test [4] deals with T4, P2K1-nLUC (Arabidopsis thaliana) (UniProt Q9LSR8).
T4 sequence: T1 sequence
In words: split reporter; split-luciferase complementation imaging (LCI); nLUC and cLUC fusions driven by the CaMV 35S promoter, co-infiltrated into 4-week-old N. benthamiana leaves; 3 days at 28 °C; 5 mM D-luciferin sprayed; luminescence by CCD camera; also with added ATP.

Test [5] addresses ILK4-cYFP (Arabidopsis thaliana). The test is described as follows: split reporter; BiFC; nYFP and cYFP fusions in Arabidopsis protoplasts (PEG-mediated transformation), 21 °C for 24 h in the dark; YFP fluorescence by microscopy, FM4-64 as plasma membrane marker.
Test [6] concerns the target ILK4-cLUC (Arabidopsis thaliana). The test is described as follows: split reporter; split-luciferase complementation imaging (LCI); nLUC and cLUC fusions driven by the CaMV 35S promoter, co-infiltrated into 4-week-old N. benthamiana leaves; 3 days at 28 °C; 5 mM D-luciferin sprayed; luminescence by CCD camera; also with added ATP.

No constants are given. Whether binding was seen depends on the method and setting. In cells and extracts the contact can be indirect. For some assays here: Binding can be weak; no strength is given. For some assays here: Where a sequence is shown, tags or fusion partners need not be part of it.

With “ILK6-cYFP (Arabidopsis thaliana) (enzyme)”, in test [1], the binding entry is given as “no binding”. Consider “Myc-tagged ILK4 (Arabidopsis thaliana) (enzyme)”, for which, in test [2], the binding entry was “binds”. On to “COP1-interacting protein-related (At5g43310) (Arabidopsis thaliana)”, for which the binding entry in test [3] is listed as “no binding”. For the molecule “ILK4-cYFP (Arabidopsis thaliana) (enzyme)”, the binding entry in test [1] was “binds”. For “LRR-RK (split-luciferase fusion) (Arabidopsis thaliana) (receptor)”, the binding entry in test [4] was “no binding”. “ILK4-cLUC (Arabidopsis thaliana) (enzyme)”: the binding result in test [4] is “binds”.

B1: MKK8-nYFP (enzyme, UniProt Q9M8J5 1-309)
chain: MVMVRDNQFLNLKLSPIQAPTTIPPCRFPIIPATKVSATVSSCASNTFSVANLDRISVLGSGNGGTVFKVKDKTTSEIYALKKVKENWDSTSLREIEILRMVNSPYVAKCHDIFQNPSGEVSILMDYMDLGSLESLRGVTEKQLALMSRQVLEGKNYLHEHKIVHRDIKPANLLRSSKEEVKIADFGVSKIVVRSLNKCNSFVGTFAYMSPERLDSEADGVTEEDKSNVYAGDIWSFGLTMLEILVGYYPMLPDQAAIVCAVCFGEPPKAPEECSDDLKSFMDCCLRKKASERWTASQLLNHPFLLHQD
Turning to B1, in test [5], the binding entry is reported as “no binding”.

B2: MKK5 (nLUC fusion) (enzyme, UniProt Q8RXG3 1-348)
chain: MKPIQSPSGVASPMKNRLRKRPDLSLPLPHRDVALAVPLPLPPPSSSSSAPASSSAISTNISAAKSLSELERVNRIGSGAGGTVYKVIHTPTSRPFALKVIYGNHEDTVRRQICREIEILRSVDHPNVVKCHDMFDHNGEIQVLLEFMDQGSLEGAHIWQEQELADLSRQILSGLAYLHRRHIVHRDIKPSNLLINSAKNVKIADFGVSRILAQTMDPCNSSVGTIAYMSPERINTDLNHGRYDGYAGDVWSLGVSILEFYLGRFPFAVSRQGDWASLMCAICMSQPPEAPATASQEFRHFVSCCLQSDPPKRWSAQQLLQHPFILKATGGPNLRQMLPPPRPLPSAS
As for B2, the binding result in test [6] was “binds”.

B3: MKK5-nYFP (enzyme, UniProt Q8RXG3 1-348)
chain: B2 chain
B3: the binding entry in test [5] is given as “binds”.

B4: MKK4 (nLUC fusion) (enzyme, UniProt O80397 1-366)
chain: MRPIQSPPGVSVPVKSRPRRRPDLTLPLPQRDVSLAVPLPLPPTSGGSGGSSGSAPSSGGSASSTNTNSSIEAKNYSDLVRGNRIGSGAGGTVYKVIHRPSSRLYALKVIYGNHEETVRRQICREIEILRDVNHPNVVKCHEMFDQNGEIQVLLEFMDKGSLEGAHVWKEQQLADLSRQILSGLAYLHSRHIVHRDIKPSNLLINSAKNVKIADFGVSRILAQTMDPCNSSVGTIAYMSPERINTDLNQGKYDGYAGDIWSLGVSILEFYLGRFPFPVSRQGDWASLMCAICMSQPPEAPATASPEFRHFISCCLQREPGKRRSAMQLLQHPFILRASPSQNRSPQNLHQLLPPPRPLSSSSSPTT
Regarding B4, the binding entry in test [6] was “binds”.

B5: MKK4-nYFP (enzyme, UniProt O80397 1-366)
chain: B4 chain
As to B5, the binding result in test [5] was “binds”.

Values taken from article PMC11952801.
